Experimental data taken from paper PMC4021201, “Repositioning: the fast track to new anti-malarial medicines?” (Malaria Journal, 2014).

What was measured:
[1] = tested on: P. falciparum K1; assay: SYBR I dye DNA staining assay (SJCRH), P. falciparum K1; settings: Plasmodium falciparum, K1, 72 h, read-out: EC50 K1
[2] = tested on: P. falciparum 3D7; assay: SYBR I dye DNA staining assay (SJCRH), P. falciparum 3D7; settings: Plasmodium falciparum, 3D7, 72 h, read-out: EC50 3D7

EC50 [1] | EC50 [2] | SMILES
150 nM |  | CO[C@@H]1[C@H](N(C)C(=O)c2ccccc2)C[C@H]2O[C@]1(C)n1c3ccccc3c3c4c(c5c6ccccc6n2c5c31)C(=O)NC4 [Midostaurin]
840 nM | 1470 nM | O=C(CCCCCCC(=O)Nc1ccccc1)NO [Vorinostat]
